The chains behind the UniProt entries cited, without tags or fusion partners. Residues count along the entry.
UniProt Q9NY43, 227-293 T278N/T285R: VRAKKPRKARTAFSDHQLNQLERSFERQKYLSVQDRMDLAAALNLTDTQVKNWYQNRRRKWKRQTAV
UniProt Q9NY43, 227-293 T278I/T285V: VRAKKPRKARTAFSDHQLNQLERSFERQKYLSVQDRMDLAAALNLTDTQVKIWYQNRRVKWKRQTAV

In article PMC11996681:

Legend:
[1] = target: BARHL2 DBD T278N/T285R (PKNOX1) (human) (UniProt Q9NY43); experiment: HT-SELEX; settings: SELEX buffer: 10.4 mM Tris-HCl pH 7.5, 51.4 mM NaCl, 1.4 mM MgCl2, 4% glycerol, 100 uM EGTA, 0.7 mM DTT, 3.7 ug/ml poly-dI-dC, 1.4 uM ZnSO4; room temperature (22 C); high values mean tight binding; recombinant protein; protein details: His (pETG20A_SPB vector); only the motif is given; counted as no binding
[2] = target: BARHL2 DBD T278I/T285V (HOXB13) (human) (UniProt Q9NY43); experiment: HT-SELEX; settings: SELEX buffer: 10.4 mM Tris-HCl pH 7.5, 51.4 mM NaCl, 1.4 mM MgCl2, 4% glycerol, 100 uM EGTA, 0.7 mM DTT, 3.7 ug/ml poly-dI-dC, 1.4 uM ZnSO4; room temperature (22 C); high values mean tight binding; recombinant protein; protein details: His (pETG20A_SPB vector); only the motif is given; counted as no binding

In the case of TAAATG (double strand), the binding signal (fold enrichment) [1] is reported as 0.8.

TAACCG (double strand) showed a binding signal (fold enrichment) [2] of 1.2.

TAAGCG (double strand) showed a binding signal (fold enrichment) [2] of 1.2 and a binding signal (fold enrichment) [1] of 1.1.

With TAATGG (double strand) the binding signal (fold enrichment) [1] was 1.2.
